Source: PubChem BioAssay AID602196 (INSERM, 2012)

Screen: 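Knock-downs that protect lung cancer cells from cisplatin or sensitise them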
Cells: human A549 lung cancer cells
Knock-down reagent: siRNA pair against human genes
Time to read-out: 48 h transfection before cisplatin; time from cisplatin to read-out not stated
Conditions: cisplatin at a dose killing half of control-siRNA cells; exact dose and duration not given
Detection: 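Cisplatin cell death as a shift from the 50% death seen with control siRNA; siRNAs toxic or growth-blocking alone scored 0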
Scale: two-siRNA summed score (-2 to +2): higher = both siRNAs protect from cisplatin killing; -2 means both sensitise
Active means: 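Each siRNA scores 0 if harmful alone by LDH or WST-1, otherwise +1 if it reduces and -1 if it increases cisplatin killing; a gene is active when both siRNAs agree (sum +2 or -2)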
Calls: active = both siRNAs shift cisplatin killing the same way; inactive = no consistent shift, or siRNA harmful alone
The whole screen tested about 23,000 reagents; this is an unselected part. 455 of them (2%) were called active. 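Active includes both protection and sensitisation; some change values fall well beyond the stated -50 to +50 range.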 A number with no mark means an inactive call. Further read-outs or replicates are left out here. No sequences are given here. The record does not give: the amount of reagent.

two-siRNA summed score (-2 to +2) | target gene | PubChem SID
-1 | ADI1 | SID131501953
2 (active) | LOC441968 | SID131523060
0 | SDR39U1 | SID131509865
0 | SCNN1A | SID131518033
0 | LOC440033 | SID131518619
0 | LOC441903 | SID131517971
0 | LOC119358 | SID131506465
0 | HPF1P1 | SID131517846
1 | LOC400041 | SID131521815

3 entries from above in another layout:
{"target gene":"LOC441968","PubChem SID":"SID131523060","two-siRNA summed score (-2 to +2)":"2 (active)"}
{"target gene":"SDR39U1","PubChem SID":"SID131509865","two-siRNA summed score (-2 to +2)":0}
{"target gene":"SCNN1A","PubChem SID":"SID131518033","two-siRNA summed score (-2 to +2)":0}

Additional results follow.
two-siRNA summed score (-2 to +2) | target gene | PubChem SID
1 | ACAD11 | SID131521197
0 | LOC400645 | SID131510756
2 (active) | FCGBP | SID131523032
0 | ZNF175 | SID131506199
1 | LOC440984 | SID131522142
1 | DKFZp434A128 | SID131521050
0 | CYTIP | SID131507485
0 | LOC153959 | SID131511613
0 | NUDT18 | SID131510340
0 | CTDNEP1 | SID131504709
0 | ARID3A | SID131509055
0 | LINC01141 | SID131505719
0 | WASH3P | SID131516773
0 | LOC391205 | SID131518589
